The values that follow come from publication PMC12517307.

The target in this assay is p53 (UniProt P04637). Briefly: co-IP; HEK293T cells transfected with p53, p300 and NDN expression plasmids, with or without LKU4–CM for 24 h; IP with anti-p53 and anti-p300 antibodies, Western blot of the immunoprecipitates. On the technique in general: In western blotting, separated proteins are transferred to a membrane and probed.

These are yes or no findings as the source states them, for the method shown. In cells and extracts the contact can be indirect. Some entries that bind do so weakly or less than the wild type.

B1: necdin (protein, UniProt P25233 1-325)
chain: MSEQSKDLSDPNFAAEVPDCEMQDSDAVPVGIPPPASLAANLAGPPCAPEGPMAAQQASPPPEERIEDVDPKILQQAAEEGRAHQPQSPARPIPAPPAPAQLVQKAHELMWYVLVKDQKRMVLWFPDMVKEVMGSYKKWCRSILRRTSVILARVFGLHLRLTNLHTMEFALVKALSPEELDRVALNNRMPMTGLLLMILSLIYVKGRGAREGAVWNVLRILGLRPWKKHSTFGDVRKIITEEFVQQNYLKYQRVPHIEPPEYEFFWGSRANREITKMQIMEFLARVFKKDPQAWPSRYREALEQARALREANLAAQAPRSSVSED
As for B1, the binding result was “binds”.
